Reference: paper PMC5998130
No constants are given. Whether binding was seen depends on the method and setting. In cells and extracts the contact can be indirect. Some binding calls cover weakened binding; strength is not graded here.

Biological target: Estrogen Receptor alpha (ERα) (human (endogenous in MCF7, human PDX tumours and human breast tumours)), P03372
Experiment: proximity ligation; PLA in methanol-fixed MCF7 cells with primary antibodies against ERα and the partner; untreated cells, and cells treated with vehicle or 100 nM OHT (2 h, 6 h)
Details: remark: other sources report otherwise

binding: binds
B1: FOXK1, P85037 1-733 (protein)
chain: MAEVGEDSGARALLALRSAPCSPVLCAAAAAAAFPAAAPPPAPAQPQPPPGPPPPPPPPLPPGAIAGAGSSGGSSGVSGDSAVAGAAPALVAAAAASVRQSPGPALARLEGREFEFLMRQPSVTIGRNSSQGSVDLSMGLSSFISRRHLQLSFQEPHFYLRCLGKNGVFVDGAFQRRGAPALQLPKQCTFRFPSTAIKIQFTSLYHKEEAPASPLRPLYPQISPLKIHIPEPDLRSMVSPVPSPTGTISVPNSCPASPRGAGSSSYRFVQNVTSDLQLAAEFAAKAASEQQADTSGGDSPKDESKPPFSYAQLIVQAISSAQDRQLTLSGIYAHITKHYPYYRTADKGWQNSIRHNLSLNRYFIKVPRSQEEPGKGSFWRIDPASEAKLVEQAFRKRRQRGVSCFRTPFGPLSSRSAPASPTHPGLMSPRSGGLQTPECLSREGSPIPHDPEFGSKLASVPEYRYSQSAPGSPVSAQPVIMAVPPRPSSLVAKPVAYMPASIVTSQQPAGHAIHVVQQAPTVTMVRVVTTSANSANGYILTSQGAAGGSHDAAGAAVLDLGSEARGLEEKPTIAFATIPAAGGVIQTVASQMAPGVPGHTVTILQPATPVTLGQHHLPVRAVTQNGKHAVPTNSLAGNAYALTSPLQLLATQASSSAPVVVTRVCEVGPKEPAAAVAATATTTPATATTASASASSTGEPEVKRSRVEEPSGAVTTPAGVIAAAGPQGPGTGE
